Measurements: patent publication US20240384003A1 (PRECISION BIOLOGICS, published 2024)
No constants are given. Whether binding was seen depends on the method and setting. Some entries that bind do so weakly or less than the wild type.

Sequences of proteins named here, by UniProt entry; tags and fusion partners are left off. A change or cut given only in a name is not applied to a line headed by its entry. Residues count along the entry.
UniProt P06731: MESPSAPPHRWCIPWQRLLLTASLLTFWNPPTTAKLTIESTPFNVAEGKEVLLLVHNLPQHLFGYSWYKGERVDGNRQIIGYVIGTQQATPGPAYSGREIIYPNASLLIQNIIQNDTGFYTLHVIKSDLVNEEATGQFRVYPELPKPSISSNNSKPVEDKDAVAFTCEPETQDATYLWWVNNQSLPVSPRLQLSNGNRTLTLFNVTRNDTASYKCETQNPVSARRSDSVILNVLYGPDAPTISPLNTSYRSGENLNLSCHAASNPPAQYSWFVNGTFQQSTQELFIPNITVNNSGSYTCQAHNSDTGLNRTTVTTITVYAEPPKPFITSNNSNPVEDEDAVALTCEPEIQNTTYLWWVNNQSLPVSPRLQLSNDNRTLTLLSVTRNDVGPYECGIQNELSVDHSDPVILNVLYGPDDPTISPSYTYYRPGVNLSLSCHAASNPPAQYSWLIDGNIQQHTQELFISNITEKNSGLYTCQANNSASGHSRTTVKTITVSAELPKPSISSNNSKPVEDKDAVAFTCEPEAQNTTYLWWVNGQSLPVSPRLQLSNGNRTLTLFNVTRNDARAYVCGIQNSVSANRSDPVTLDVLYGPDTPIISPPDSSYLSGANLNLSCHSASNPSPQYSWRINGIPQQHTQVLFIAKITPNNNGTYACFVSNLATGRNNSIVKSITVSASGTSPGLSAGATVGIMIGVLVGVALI
CEACAM5-D2-320*: residues 35-319 of P06731
CEACAM5-D2-318*: residues 35-317 of P06731
CEACAM5-D2-316*: residues 35-315 of P06731
CEACAM5-D2-314*: residues 35-313 of P06731

Experiments:
Experiment in all cases: ELISA binding curves of truncated CEACAM5
[1] = target: CEACAM5-D2-314* (human) (UniProt P06731)
[2] = target: CEACAM5-D2-316* (human) (UniProt P06731)
[3] = target: CEACAM5-D2-318* (human) (UniProt P06731)
[4] = target: CEACAM5-D2-320* (human) (UniProt P06731)

- binding [1]: binds
- binding [2]: binds
- binding [3]: binds
- binding [4]: binds
B1: NEO-201 (antibody, human IgG1, kappa, V domains shown)
VH: QVQLVQSGAEVKKPGASVKVSCKASGYTFTDYAMHWVRQAPGQRLEWMGLISTYSGDTKYNQNFQGRVTMTVDKSASTAYMELSSLRSEDTAVYYCARGDYSGSRYWFAYWGQGTLVTVSS
VL: DIQMTQSPSSLSASVGDRVTITCQASENIYGALNWYQRKPGKSPKLLIYGASNLATGMPSRFSGSGSGTDYTFTISSLQPEDIATYYCQQVLSSPYTFGGGTKLEIKR
notes: also called H16C3-Abb*
